No constants are given. Whether binding was seen depends on the method and setting. A result given as binding can be weak or reduced; the word gives no strength.
What was measured:
[1] = biological target: Recombinant MICA*04 protein; test: ELISA, coated MICA*04 (100 ng/well), goat anti-mouse IgG-HRP, OD 450 nm
[2] = biological target: Recombinant MICA*02 protein; test: ELISA, coated MICA*02 (100 ng/well), goat anti-mouse IgG-HRP, OD 450 nm
MICA*04-His protein = test: BLI epitope binning, MICA*04-His on Ni-NTA tips
[3] = biological target: Recombinant MICA*09 protein; test: ELISA, coated MICA*09 (100 ng/well), goat anti-mouse IgG-HRP, OD 450 nm
[4] = biological target: Recombinant MICA*08 protein; test: ELISA, coated MICA*08 (100 ng/well), goat anti-mouse IgG-HRP, OD 450 nm
[5] = biological target: Recombinant MICA*04 protein; test: ELISA, antigen coated on the plate
[6] = biological target: Recombinant MICA*09 protein; test: ELISA, antigen coated on the plate
[7] = biological target: Recombinant MICA*08 protein; test: ELISA, antigen coated on the plate
[8] = biological target: Recombinant MICA*02 protein; test: ELISA, antigen coated on the plate
[9] = biological target: MICA*08 expressed on TRAMP-C2 cells (TC2-MICA-08); test: flow cytometry on TC2-MICA-08 cells
[10] = biological target: MICA*08 expressed on TRAMP-C2 cells (TC2-MICA-08); test: flow cytometry, 500 ng antibody in 100 µl, PE goat anti-mouse IgG, TC2-MICA-08 cells against parental TC2 cells
[11] = biological target: MICA*08 expressed on TRAMP-C2 cells (TC2-MICA-08); test: flow cytometry on TC2-MICA-08 cells, 500 ng antibody in 100 µl

Measured: binding

B1: 16F10.C12 (antibody, V domains shown)
VH: EVQLQESGPGLVAPSQSLSITCTVSGFSLTAFGVNWVRQPPGKGLEWLGMIWGDGNTDYNSTLRSRLSISKDNSKSQVFLKLNSLQTDDTARYFCARETYYGNYAGLGYWGQGTLVTVSA
VL: QIVLTQSPAIMSASIGERVTMTCTASSSVSSNYLHWYQQKPRSSPKLWIYTTSNLASGVPTRFSGSGSGTSYSLTISSMEAEDAATYYCHQFHRSPFTFGSGTKLEIK
not listed: [9] | [10] | [11]
binds: all other assays above

B2: 3F9.E4 (antibody, V domains shown)
VH: EVQLQESGEGLVKPGGSLKLSCAASGFTFSNYAMSWVRQTPEKRLEWVAYISPGGDYIYYADTVKGRFTISRDNARNTLYLQMSSLKSEDTAMYYCTTDRRHYGSYAMDYWGQGISVTVSS
VL: DIVMTQAAPSVPVTPGESVSISCRSSKSLLHSNGNTYLYWFLQRPGQSPQLLIYRMSNLASGVPDRFSGSGSGTAFTLRISRVEAEDVGVYYCMQHLEYPFTFGSGTKLEIK
binds: all assays above
